We go through one molecule from article doi:10.1101/2025.07.23.666269 (bioRxiv, 2025).

Results are given in words; binding and its absence hold for the method and conditions named. For some assays here: In cells and extracts the contact can be indirect. Some binding calls cover weakened binding; strength is not graded here.

Assay [1] deals with T1, major capsid protein P1 of cystovirus ɸ6 (in virion-derived particles) (cystovirus ɸ6) (UniProt P11126).
T1 sequence: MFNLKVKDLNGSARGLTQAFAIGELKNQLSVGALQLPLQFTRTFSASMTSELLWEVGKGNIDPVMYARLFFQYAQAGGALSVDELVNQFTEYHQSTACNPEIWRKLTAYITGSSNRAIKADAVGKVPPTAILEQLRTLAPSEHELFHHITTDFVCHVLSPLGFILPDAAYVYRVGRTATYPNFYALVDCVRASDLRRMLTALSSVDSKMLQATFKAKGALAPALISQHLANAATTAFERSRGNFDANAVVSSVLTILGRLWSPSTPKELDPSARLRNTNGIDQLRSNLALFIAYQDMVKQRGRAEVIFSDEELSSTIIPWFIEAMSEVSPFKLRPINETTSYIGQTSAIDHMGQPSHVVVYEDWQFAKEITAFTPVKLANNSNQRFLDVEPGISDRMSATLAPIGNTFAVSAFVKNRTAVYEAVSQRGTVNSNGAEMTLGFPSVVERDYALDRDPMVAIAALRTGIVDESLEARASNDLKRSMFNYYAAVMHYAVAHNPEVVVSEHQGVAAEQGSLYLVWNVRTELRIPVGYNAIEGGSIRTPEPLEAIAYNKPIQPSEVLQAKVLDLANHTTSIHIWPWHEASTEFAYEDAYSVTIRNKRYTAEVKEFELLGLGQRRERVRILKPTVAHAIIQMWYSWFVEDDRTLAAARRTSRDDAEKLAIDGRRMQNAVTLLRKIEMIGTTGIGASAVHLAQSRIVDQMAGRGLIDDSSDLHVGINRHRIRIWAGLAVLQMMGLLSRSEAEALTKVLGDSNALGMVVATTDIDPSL
In words: cryo-EM structure.

The target of assay [2] is T1, major capsid protein P1 of cystovirus ɸ6 (in virion-derived particles) (cystovirus ɸ6). The experiment in a line: co-sedimentation.

B1: outer layer protein P8 of cystovirus ɸ6 (in virion-derived particles) (natural protein)
chain: MLLPVVARAAVPAIESAIAATPGLVSRIAAAIGSKVSPSAILAAVKSNPVVAGLTLAQIGSTGYDAYQQLLENHPEVAEMLKDLSFKADEIQPDFIGNLGQYREELELVEDAARFVGGMSNLIRLRQALELDIKYYGLKMQLNDMGYRS
As to B1, the binding result in assay [1] and in assay [2] was “binds” throughout.
